Some of these results come from one statement about several compounds together.
Experiments:
Type in all cases: in vivo
[1] = system: Spodoptera littoralis caterpillars; assay: Action against Spodoptera littoralis caterpillars; conditions: 400 ppm spray, soya plants, third instar caterpillars, three days later
[2] = system: Plutella xylostella caterpillars; assay: Activity against Plutella xylostella caterpillars; conditions: 400 ppm spray, cabbage plants, third instar caterpillars, 3 days later
Tetranychus urticae = assay: Activity against Tetranychus urticae; conditions: 400 ppm spray, bean plants, mixed population, 6 days at 25° C.
[3] = system: Diabrotica balteata larvae; assay: Activity against Diabrotica balteata larvae; conditions: 400 ppm spray, maize seedlings, second instar larvae, 6 days later
[4] = system: Heliothis virescens caterpillars; assay: Activity against Heliothis virescens caterpillars; conditions: 400 ppm spray, soya plants, first instar caterpillars, 6 days later
Myzus persicae = assay: Activity against Myzus persicae; conditions: 400 ppm spray, pea seedlings, 20° C., 3 and 6 days later
Aphis craccivora = assay: Activity against Aphis craccivora; conditions: 400 ppm spray, pea seedlings, 20° C., 3 and 6 days later
Nilaparvata lugens = assay: Activity against Nilaparvata lugens; conditions: 400 ppm spray, rice plants, 2nd and 3rd instar larvae, 21 days later
[5] = system: Frankliniella occidentalis; assay: Activity against Frankliniella occidentalis; conditions: 10 g/hl spray, three times at 10-day intervals, bell pepper plants in the greenhouse
Heliothis virescens eggs = assay: Ovicidal action on Heliothis virescens; conditions: 400 ppm active ingredient, eggs on filter paper immersed, after 6 days
[6] = system: Panonychus ulmi (OP- and Carb.-resistant); assay: Activity against Panonychus ulmi (OP- and Carb.-resistant); conditions: 400 ppm spray, apple seedlings, adult females, after 14 days

With N#CC(=NN(Cc1ccccc1)c1c(Cl)cc(C(F)(F)F)cc1Cl)c1ccc(C#N)cc1 [Compound 3.31] the “activity (percentage reduction in population or in feeding damage)” value [1] was “over 80%”.

CCNC(=O)C(=O)N(N=C(C#N)c1ccc(C#N)cc1)c1c(Cl)cc(C(F)(F)F)cc1Cl [Compound 3.101] was tested, and the “activity (percentage reduction in population or in feeding damage)” value [2] was “over 80%”.

With N#CC(=NNc1c(Cl)cc(C(F)(F)F)cc1Cl)c1cc(F)cc(F)c1 [Compound 3.21] the “activity (percentage reduction in population or in feeding damage)” value [1] was “over 80%”, the “activity (percentage reduction in population or in feeding damage)” value [2] was “over 80%” and the “activity (percentage reduction in population)” value (Tetranychus urticae) was “over 80%”. The “activity (percentage reduction in population)” value [3] was “over 80%” and the “activity (percentage reduction in population or in feeding damage)” value [4] was “over 80%”.

In the case of CCN(N=C(C#N)c1ccc([N+](=O)[O-])cc1)c1c(Cl)cc(C(F)(F)F)cc1Cl [Compound 3.92], the “activity (percentage reduction in population)” value (Myzus persicae) is reported as “over 80%”, the “activity (percentage reduction in population)” value (Aphis craccivora) is reported as “over 80%” and the “activity (percentage reduction in population)” value (Nilaparvata lugens) is reported as “over 80%”.

For COC(=O)N(C)CN(N=C(C#N)c1ccc(C#N)cc1)c1c(Cl)cc(C(F)(F)F)cc1Cl [Compound 3.79], the “activity (reduction in the number of nymphs)” value [5] was “over 80%”.

In the case of CCOC(=O)N(C)CN(N=C(C#N)c1ccc([N+](=O)[O-])cc1)c1c(Cl)cc(C(F)(F)F)cc1Cl [Compound 3.97], the “activity (percentage reduction in population)” value (Myzus persicae) is reported as “over 80%”, the “activity (percentage reduction in population)” value (Aphis craccivora) is reported as “over 80%” and the “activity (percentage reduction in population)” value (Tetranychus urticae) is reported as “over 80%”.

For N#CC(=NNc1c(Cl)cc(C(F)(F)F)cc1Cl)c1ccc(Cl)c(Cl)c1 [Compound 3.26], the “activity (percentage reduction in population or in feeding damage)” value [2] was “over 80%” and the “activity (% reduction in hatching)” value (Heliothis virescens eggs) was “over 80%”.

In the case of N#CC(=NNc1cc(C(F)(F)F)cc(C(F)(F)F)c1)c1ccccc1F [Compound 3.8], the “activity (percentage reduction in population)” value [3] is reported as “over 80%”.

For CC(=O)N(N=C(C#N)c1ccc(C#N)cc1)c1ccc(C(F)(F)F)cc1Cl [Compound 3.41], the “activity (percentage reduction in population or in feeding damage)” value [1] was “over 80%”, the “activity (percentage reduction in population or in feeding damage)” value [2] was “over 80%” and the “activity (percentage reduction in population)” value (Aphis craccivora) was “over 80%”. For the same molecule, the “activity (percentage reduction in population)” value (Tetranychus urticae) was “over 80%”, the “activity (percentage reduction in population)” value [3] was “over 80%” and the “activity (percentage reduction in population or in feeding damage)” value [4] was “over 80%”.

For N#CC(=NNc1c(Cl)cc(C(F)(F)F)cc1Cl)c1ccc([N+](=O)[O-])cc1Cl [Compound 3.95], the “activity (percentage reduction in population)” value (Aphis craccivora) was “over 80%” and the “activity (percentage reduction in population)” value (Tetranychus urticae) was “over 80%”.

N#CC(=NNc1c(Cl)cc(C(F)(F)F)cc1Cl)c1ccc(OC(F)(F)F)cc1 [Compound 3.17] was tested, and the “activity (percentage reduction in population)” value (Tetranychus urticae) was “over 80%”.

N#CC(=NNc1c(Cl)cc(C(F)(F)F)cc1Cl)c1cccc(C(F)(F)F)c1 [Compound 3.7] was tested, and the “activity (percentage reduction in population or in feeding damage)” value [2] was “over 80%” and the “activity (percentage reduction in population)” value [3] was “over 80%”.

In the case of Cc1cc(C(C#N)=NNc2c(Cl)cc(C(F)(F)F)cc2Cl)ccc1[N+](=O)[O-] [Compound 3.94], the “activity (percentage reduction in population)” value (Tetranychus urticae) is reported as “over 80%”.

With N#CC(=NNc1c(Cl)cc([N+](=O)[O-])cc1Cl)c1ccc([N+](=O)[O-])cc1 [Compound 3.106] the “activity (percentage reduction in population)” value (Aphis craccivora) was “over 80%”.

N#CC(=NN(C#N)c1c(Cl)cc(C(F)(F)F)cc1Cl)c1ccc(C#N)cc1 [Compound 3.35] was tested, and the “activity (percentage reduction in population or in feeding damage)” value [4] was “over 80%”.

With CCOC(=O)N(N=C(C#N)c1ccc(C#N)cc1)c1c(Cl)cc(C(F)(F)F)cc1Cl [Compound 3.34] the “activity (percentage reduction in population)” value [6] was “over 80%” and the “activity (percentage reduction in population or in feeding damage)” value [4] was “over 80%”.

CCN(N=C(C#N)c1ccc(C#N)cc1)c1c(Cl)cc(C(F)(F)F)cc1Cl [Compound 3.51] was tested, and the “activity (percentage reduction in population)” value (Nilaparvata lugens) was “over 80%”.

With CCOCN(N=C(C#N)c1ccc(C#N)cc1)c1c(Cl)cc(C(F)(F)F)cc1Cl [Compound 3.30] the “activity (percentage reduction in population)” value (Nilaparvata lugens) was “over 80%”, the “activity (percentage reduction in population)” value (Tetranychus urticae) was “over 80%” and the “activity (percentage reduction in population or in feeding damage)” value [4] was “over 80%”.

For COC(=O)C(=O)N(/N=C(\C#N)c1ccc(C#N)cc1)c1c(Cl)cc(C(F)(F)F)cc1Cl [Compound 3.36, methyl {N′-[1-(4-cyanophenyl)-2-nitriloethylidene]-N-(2,6-dichloro-4-trifluoromethylphenyl)hydrazino]oxoacetate], the “activity (percentage reduction in population or in feeding damage)” value [4] was “over 80%”.
